Data: patent US20160046678A1 (ZYNGENIA, published 2016)
These are yes or no findings as the source states them, for the method shown. Some binding calls cover weakened binding; strength is not graded here.

biological target: T1, TL1A (UniProt O95150); assay: peptide selection, Example 48
T1 sequence (looked up): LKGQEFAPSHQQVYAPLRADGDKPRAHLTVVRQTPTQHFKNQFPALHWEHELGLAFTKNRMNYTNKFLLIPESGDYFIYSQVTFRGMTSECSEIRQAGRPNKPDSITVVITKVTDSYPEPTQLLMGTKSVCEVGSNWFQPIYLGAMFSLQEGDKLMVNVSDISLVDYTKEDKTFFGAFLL

binding, binds:
DYEVCWDVHVERLVYCEDLI [TLA397]
DYEVCWDVHLDRLVYCDGPL [TLA402]
LDAVCWDTQQQKLRFCHTHM [TLA361]
DYAVCWDVYADRLIYCEVPM [TLA398]
DYEVCWDVHFDRLVYCDTPL [TLA391]
ALEVCWDFDVDHLVYCAAAL [TLA385]
DYEVCWDDYADRLVYCDLSL [TLA379]
DYAVCWDDVRGKLVWCKGLK [TLA343]
QYDVCWDIYSDRLVYCDAHL [TLA388]
AQYVCWDDKEQKLKFCEDQM [TLA350]
EYAVCWDESLEKLEWCTGLY [TLA373]
DYEVCWDVIRGRLVYCETPM [TLA382]
NHDVCWDFHVDRLVYCDTPI [TLA377]
DTDVCWDHVQGKLYFCTKSL [TLA367]
PYEVCWDFHLDRLVFCDADK [TLA407]
EFEVCWDVHLDRLVYCHATM [TLA386]
DYEVCWDVEVDRLVYCVGHK [TLA406]
STDVCWDRDHDKLMFCMSVR [TLA370]
RYAVCWDESTEKLVYCQNQM [TLA351]
DYAVCWDEAQGKLGWCIGMN [TLA371]
TSDVCWNYHYSKLQFCQQSM [TLA368]
SSDVCWEAHSEKLYFCDPAR [TLA358]
QNDVCWDYHRGKLAFCEALI [TLA366]
LSMVCWDQHQERLVFCINRM [TLA349]
DYEVCWDFDIDRLVYCNPPM [TLA399]
DYEVCWDLYLGRLYYCNAPI [TLA389]
AFDVCWVEALEKLEWCLGHN [TLA357]
DHAVCWNEFQEKLDWCTGLN [TLA364]
EYDLCWDEIRQKLEWCQGLT [TLA344]
SYEVCWDVHLDRLVYCNSVM [TLA380]
RNHVCWDEYTEKLRFCGDGA [TLA340]
HSDVCWDDHMDKLAFCWHMI [TLA341]
AYEVCWDVNLDRLVYCEALM [TLA383]
EYAVCWNEDHAKLEWCQELN [TLA347]
DDAVCWDYHLDRLVFCETPM [TLA394]
LQDVCWDLYYQKLYFCHQPM [TLA369]
KLYVCWDKYKEKLVFCQALM [TLA359]
PDTVCWDDHLGKLMFCSSIM [TLA339]
RFFVCWDHDNSKLVFCSQNM [TLA353]
HYAVCWDFHLDRLVYCDRPS [TLA381]
DYEVCWDVHVGRLIYCNALI [TLA404]
RYAVCWDEAQEKLVWCGRVN [TLA356]
DNEVCWDGHVDRLVFCDSTM [TLA376]
QSYVCWDEHQSRLRFCSETI [TLA338]
DYSVCWDFYFDRLVYCNALF [TLA403]
SYDVCWDDVVDRLVYCEATL [TLA405]
EYAVCWDAENEKLEWCEGLN [TLA345]
EYALCWDQDKEILHWCVEFY [TLA375]
KHFVCWDELNEKLVWCKGLI [TLA346]
DYDVCWDIHLDRLVYCDGPL [TLA395]
EYEVCWDVNVDRLVYCNMPN [TLA390]
FTAVCWDYHSNKLQFCSTLM [TLA342]
NEFVCWDEYKNKLVFCVPTL [TLA352]
EYAVCWDDAQERLEWCKEPL [TLA372]
RSDVCWDAHLDKLIFCAGVM [TLA362]
GYEVCWDLKWDRLVFCDAPI [TLA384]
DYEVCWDVQLDRLVYCDGAM [TLA396]
KSEVCWDYDMNKLMFCFYDM [TLA360]
DYEVCWSDDLDRLVYCQALI [TLA393]
EYAVCWDEAQQRLIWCKGLY [TLA374]
DYAVCWDAHMDHLVYCDAIA [TLA378]
